Laboratory results as given in the supplement of paper PMC6411743.
± gives the standard deviation of the averaged measurements. The list shows a part of the results.

Protein sequences, listed by entry. Tags and fused reporters are not part of them. Lines headed by an entry give the natural chain unless they say otherwise; changes in a name come on top.
UniProt P52564: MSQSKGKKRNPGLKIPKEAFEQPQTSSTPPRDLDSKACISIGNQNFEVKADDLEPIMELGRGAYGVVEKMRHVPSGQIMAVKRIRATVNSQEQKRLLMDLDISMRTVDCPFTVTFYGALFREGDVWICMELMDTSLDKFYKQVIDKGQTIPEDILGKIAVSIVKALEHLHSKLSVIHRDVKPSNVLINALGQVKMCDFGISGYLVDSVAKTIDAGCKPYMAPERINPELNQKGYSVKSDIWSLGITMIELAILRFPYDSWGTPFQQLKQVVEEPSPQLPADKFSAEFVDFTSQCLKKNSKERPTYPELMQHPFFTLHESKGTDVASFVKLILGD
UniProt P62253: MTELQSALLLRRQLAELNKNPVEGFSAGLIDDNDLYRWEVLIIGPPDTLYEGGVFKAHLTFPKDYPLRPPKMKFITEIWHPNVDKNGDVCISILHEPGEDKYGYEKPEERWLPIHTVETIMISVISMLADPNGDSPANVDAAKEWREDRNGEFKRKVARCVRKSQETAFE
UniProt P60468, whole entry: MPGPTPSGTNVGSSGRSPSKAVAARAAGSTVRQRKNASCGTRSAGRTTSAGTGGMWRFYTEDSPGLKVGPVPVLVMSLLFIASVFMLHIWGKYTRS
UniProt P61962: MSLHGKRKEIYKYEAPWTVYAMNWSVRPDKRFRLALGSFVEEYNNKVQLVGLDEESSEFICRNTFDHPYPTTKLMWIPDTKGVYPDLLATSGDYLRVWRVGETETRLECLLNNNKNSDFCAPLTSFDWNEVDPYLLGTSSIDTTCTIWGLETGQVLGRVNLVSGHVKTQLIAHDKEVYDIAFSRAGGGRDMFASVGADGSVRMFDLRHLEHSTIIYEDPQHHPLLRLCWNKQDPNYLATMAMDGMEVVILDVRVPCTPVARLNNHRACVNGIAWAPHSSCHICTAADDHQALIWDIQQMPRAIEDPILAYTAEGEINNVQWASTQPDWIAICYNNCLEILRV
UniProt P62314, whole entry: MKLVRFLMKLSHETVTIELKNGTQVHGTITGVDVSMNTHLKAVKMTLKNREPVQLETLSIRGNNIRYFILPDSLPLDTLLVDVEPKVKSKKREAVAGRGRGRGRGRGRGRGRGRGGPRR
UniProt P82970: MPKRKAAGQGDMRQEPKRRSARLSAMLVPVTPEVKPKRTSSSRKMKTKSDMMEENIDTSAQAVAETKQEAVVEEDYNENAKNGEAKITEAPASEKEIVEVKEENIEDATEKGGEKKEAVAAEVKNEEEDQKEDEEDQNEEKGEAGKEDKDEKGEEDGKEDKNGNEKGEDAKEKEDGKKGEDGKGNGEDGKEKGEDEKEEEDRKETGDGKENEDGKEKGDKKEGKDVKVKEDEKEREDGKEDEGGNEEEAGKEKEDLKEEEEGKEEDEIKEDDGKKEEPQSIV
UniProt P62993, whole entry, looked up: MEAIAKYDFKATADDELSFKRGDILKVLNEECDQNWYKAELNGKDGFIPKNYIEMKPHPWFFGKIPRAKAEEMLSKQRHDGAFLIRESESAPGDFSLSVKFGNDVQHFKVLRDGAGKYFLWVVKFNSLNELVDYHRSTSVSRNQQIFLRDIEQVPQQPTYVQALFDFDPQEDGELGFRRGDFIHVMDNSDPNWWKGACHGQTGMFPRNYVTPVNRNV
UniProt P62330: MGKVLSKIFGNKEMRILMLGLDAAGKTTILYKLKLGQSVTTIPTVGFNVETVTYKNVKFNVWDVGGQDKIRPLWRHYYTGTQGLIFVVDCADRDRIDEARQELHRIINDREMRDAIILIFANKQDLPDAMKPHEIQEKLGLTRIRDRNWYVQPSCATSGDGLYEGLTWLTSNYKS
UniProt P61081: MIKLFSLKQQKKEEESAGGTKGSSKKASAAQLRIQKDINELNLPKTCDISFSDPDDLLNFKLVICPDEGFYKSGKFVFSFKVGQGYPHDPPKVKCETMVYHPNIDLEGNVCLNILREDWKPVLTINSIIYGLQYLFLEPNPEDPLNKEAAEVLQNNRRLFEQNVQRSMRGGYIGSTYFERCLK
UniProt Q00013: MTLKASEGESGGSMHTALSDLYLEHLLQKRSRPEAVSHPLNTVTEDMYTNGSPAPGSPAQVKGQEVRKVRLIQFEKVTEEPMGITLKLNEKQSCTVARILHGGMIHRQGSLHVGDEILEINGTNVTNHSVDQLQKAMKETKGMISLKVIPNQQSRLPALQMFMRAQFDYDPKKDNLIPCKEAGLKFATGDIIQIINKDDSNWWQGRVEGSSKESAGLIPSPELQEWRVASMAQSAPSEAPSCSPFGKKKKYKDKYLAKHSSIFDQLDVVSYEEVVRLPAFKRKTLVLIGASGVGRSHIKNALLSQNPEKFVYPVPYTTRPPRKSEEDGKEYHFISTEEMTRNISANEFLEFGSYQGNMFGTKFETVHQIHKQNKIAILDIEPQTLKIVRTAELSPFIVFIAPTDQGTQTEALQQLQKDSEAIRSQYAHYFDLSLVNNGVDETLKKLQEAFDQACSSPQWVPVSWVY
UniProt P84090, whole entry, looked up: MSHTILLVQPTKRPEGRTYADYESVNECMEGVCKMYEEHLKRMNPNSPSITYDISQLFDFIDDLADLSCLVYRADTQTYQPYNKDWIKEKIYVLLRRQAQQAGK
UniProt P57772: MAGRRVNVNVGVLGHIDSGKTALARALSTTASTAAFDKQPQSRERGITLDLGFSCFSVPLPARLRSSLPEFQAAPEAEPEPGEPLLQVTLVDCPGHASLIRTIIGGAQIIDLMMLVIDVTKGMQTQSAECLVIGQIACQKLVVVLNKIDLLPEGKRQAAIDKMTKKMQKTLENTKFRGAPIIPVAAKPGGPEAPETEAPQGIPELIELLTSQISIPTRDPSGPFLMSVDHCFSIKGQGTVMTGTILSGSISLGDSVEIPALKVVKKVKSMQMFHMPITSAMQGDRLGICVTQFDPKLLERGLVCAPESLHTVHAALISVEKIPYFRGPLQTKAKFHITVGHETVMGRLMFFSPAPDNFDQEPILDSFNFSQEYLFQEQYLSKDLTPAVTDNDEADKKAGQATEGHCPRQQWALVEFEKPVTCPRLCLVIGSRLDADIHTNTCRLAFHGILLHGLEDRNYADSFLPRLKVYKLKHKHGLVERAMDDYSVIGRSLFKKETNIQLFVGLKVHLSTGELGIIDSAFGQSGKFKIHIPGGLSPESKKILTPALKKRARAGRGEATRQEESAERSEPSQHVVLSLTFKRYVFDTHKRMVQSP
UniProt P61244, whole entry: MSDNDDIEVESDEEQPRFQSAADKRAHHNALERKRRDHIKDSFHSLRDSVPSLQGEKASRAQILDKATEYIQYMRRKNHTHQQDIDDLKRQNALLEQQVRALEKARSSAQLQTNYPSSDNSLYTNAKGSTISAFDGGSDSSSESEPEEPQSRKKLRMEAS
UniProt P78316: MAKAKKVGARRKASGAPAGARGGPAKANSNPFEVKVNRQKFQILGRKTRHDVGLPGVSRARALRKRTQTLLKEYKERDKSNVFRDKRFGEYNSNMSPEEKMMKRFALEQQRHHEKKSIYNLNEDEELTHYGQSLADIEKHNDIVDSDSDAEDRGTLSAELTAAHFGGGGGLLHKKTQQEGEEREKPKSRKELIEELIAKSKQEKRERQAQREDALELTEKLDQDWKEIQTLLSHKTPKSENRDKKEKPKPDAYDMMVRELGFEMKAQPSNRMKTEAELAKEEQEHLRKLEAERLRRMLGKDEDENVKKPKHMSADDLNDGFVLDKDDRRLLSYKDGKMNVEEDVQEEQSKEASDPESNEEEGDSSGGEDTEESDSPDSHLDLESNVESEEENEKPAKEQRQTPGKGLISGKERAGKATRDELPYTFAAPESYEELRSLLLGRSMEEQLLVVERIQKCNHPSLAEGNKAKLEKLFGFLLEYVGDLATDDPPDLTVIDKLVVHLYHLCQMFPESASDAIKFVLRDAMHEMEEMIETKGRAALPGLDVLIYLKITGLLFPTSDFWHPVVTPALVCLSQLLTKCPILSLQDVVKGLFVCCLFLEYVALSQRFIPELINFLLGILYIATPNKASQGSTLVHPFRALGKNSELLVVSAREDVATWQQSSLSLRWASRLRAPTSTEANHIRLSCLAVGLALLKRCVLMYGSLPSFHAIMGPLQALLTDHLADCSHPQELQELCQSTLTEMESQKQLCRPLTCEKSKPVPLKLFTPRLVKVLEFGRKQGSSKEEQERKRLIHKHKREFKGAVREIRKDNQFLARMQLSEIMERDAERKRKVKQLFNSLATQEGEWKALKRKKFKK
UniProt P61009: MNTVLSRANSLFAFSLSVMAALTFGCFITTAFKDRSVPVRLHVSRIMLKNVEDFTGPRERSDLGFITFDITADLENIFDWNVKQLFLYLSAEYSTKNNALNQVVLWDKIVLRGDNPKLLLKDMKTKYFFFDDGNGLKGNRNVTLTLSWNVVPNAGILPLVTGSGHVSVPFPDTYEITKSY
UniProt P61129: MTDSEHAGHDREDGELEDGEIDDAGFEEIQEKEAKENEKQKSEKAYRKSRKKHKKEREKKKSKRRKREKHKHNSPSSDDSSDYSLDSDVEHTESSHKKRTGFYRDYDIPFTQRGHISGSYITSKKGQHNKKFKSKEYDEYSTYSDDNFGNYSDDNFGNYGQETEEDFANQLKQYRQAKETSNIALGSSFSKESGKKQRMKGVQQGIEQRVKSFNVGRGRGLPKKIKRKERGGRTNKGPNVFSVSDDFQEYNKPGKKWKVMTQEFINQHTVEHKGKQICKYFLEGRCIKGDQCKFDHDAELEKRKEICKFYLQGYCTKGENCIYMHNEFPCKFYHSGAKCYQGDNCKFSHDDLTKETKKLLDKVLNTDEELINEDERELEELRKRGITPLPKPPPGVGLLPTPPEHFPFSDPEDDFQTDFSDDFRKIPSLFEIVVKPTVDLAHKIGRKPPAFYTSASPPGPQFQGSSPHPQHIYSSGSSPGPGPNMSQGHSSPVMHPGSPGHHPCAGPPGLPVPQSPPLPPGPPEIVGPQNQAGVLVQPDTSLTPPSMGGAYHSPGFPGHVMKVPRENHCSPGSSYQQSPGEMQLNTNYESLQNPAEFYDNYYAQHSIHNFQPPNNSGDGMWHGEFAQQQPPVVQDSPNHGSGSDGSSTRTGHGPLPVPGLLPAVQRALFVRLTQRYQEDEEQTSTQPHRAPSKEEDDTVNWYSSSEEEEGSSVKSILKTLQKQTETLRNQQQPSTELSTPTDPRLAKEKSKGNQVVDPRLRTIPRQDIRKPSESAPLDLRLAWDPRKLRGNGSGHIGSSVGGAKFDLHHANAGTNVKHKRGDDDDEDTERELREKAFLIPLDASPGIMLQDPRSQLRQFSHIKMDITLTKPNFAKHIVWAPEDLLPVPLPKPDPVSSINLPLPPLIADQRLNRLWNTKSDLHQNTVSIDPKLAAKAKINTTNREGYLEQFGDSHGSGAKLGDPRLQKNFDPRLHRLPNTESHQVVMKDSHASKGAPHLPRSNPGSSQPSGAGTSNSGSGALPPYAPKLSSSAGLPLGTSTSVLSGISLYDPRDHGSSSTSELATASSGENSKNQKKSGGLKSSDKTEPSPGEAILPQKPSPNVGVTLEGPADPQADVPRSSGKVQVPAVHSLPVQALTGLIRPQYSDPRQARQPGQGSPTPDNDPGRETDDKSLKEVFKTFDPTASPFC
UniProt Q00534, whole entry: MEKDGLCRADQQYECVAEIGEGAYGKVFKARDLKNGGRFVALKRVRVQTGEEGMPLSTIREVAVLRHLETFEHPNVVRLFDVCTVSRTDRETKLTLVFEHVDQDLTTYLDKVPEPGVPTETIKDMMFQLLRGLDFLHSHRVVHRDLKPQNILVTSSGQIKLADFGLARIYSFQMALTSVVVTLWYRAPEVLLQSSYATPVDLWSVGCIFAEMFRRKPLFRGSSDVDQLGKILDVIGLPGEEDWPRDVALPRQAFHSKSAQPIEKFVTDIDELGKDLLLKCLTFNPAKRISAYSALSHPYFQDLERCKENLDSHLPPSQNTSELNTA
UniProt P55199: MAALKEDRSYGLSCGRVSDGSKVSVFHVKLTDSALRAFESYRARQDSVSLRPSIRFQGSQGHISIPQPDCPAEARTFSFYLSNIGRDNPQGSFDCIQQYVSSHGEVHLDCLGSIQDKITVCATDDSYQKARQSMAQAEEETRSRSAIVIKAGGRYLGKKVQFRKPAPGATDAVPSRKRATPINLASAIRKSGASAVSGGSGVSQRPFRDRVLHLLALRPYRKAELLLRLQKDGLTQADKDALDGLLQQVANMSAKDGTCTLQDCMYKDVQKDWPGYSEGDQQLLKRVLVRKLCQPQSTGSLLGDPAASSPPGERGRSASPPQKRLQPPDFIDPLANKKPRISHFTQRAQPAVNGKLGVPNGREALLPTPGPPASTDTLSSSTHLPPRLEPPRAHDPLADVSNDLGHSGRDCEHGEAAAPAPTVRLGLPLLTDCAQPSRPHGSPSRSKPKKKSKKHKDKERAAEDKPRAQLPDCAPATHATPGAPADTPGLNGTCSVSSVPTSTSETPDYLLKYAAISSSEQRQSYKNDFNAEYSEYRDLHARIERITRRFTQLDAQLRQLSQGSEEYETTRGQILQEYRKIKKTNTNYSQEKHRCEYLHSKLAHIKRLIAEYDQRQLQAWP
UniProt P52298: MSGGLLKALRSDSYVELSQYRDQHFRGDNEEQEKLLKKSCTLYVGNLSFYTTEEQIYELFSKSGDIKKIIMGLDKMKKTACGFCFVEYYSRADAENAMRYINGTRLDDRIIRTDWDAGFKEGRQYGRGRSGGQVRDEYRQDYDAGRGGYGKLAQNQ

The targets below were run with Nc1nc2c(ncn2[C@@H]2O[C@H](COP(=O)(O)OP(=O)(O)OP(=O)(O)O)[C@@H](O)[C@H]2O)c(=O)[nH]1 [guanosine triphosphate] (assay: NP40-soluble protein abundance relative to vehicle (solubility fold change) (ratio); higher = more soluble protein in presence of GTP). Settings: concentration: 0.5mM.
In short: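 Each value is a fold change relative to the detergent-processed vehicle, calculated per replicate from vsn-normalised intensities. Jurkat crude lysate received eight concentrations (0.1 to 10 mM) for 10 min at room temperature and 3 min at 37 °C, then was solubilised in 0.8% NP40 with benzonase (60 min, 4 °C). The ultracentrifuged supernatant was TMT-labelled and run by LC-MS/MS in three independent experiments.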

Target | NP40-soluble protein abundance
UniProt P98155 and related entries | 1.05 ± 0.052
EIF5 (UniProt P55010) | 0.97 ± 0.054
UniProt P52564 | 1 ± 0.029
UniProt P62253 | 0.956 ± 0.05
EIF6 (UniProt P56537) | 1.03 ± 0.034
CPT1A (UniProt P50416) | 1.08 ± 0.083
SEC61B (UniProt P60468) | 0.839 ± 0.099
UniProt P55957 and related entries | 0.854 ± 0.04
UniProt P61962 | 1.08 ± 0.089
UniProt P62314 | 1.14 ± 0.14
UniProt P82970 and related entries | 0.891 ± 0.013
KPNA1 (UniProt P52294) | 1.08 ± 0.041
UniProt P60842 | 0.973 ± 0.13
GRB2 (UniProt P62993) | 0.973 ± 0.045
SMS (UniProt P52788) | 0.996 ± 0.021
UniProt P62330 | 1.08 ± 0.049
FOXK1 (UniProt P85037) | 1.02 ± 0.052
MRPS6 (UniProt P82932) | 1.06 ± 0.19
UniProt P78406 and related entries | 0.975 ± 0.073
UniProt P82912 and related entries | 1.15 ± 0.13

Same assay, conditions: concentration: 1mM

Target | NP40-soluble protein abundance
UniProt P51157 and related entries | 0.93 ± 0.036
UniProt P62195 | 1.04 ± 0.14
UniProt P62072 | 1.06 ± 0.086
UniProt P61081 | 0.929 ± 0.043
MPP1 (UniProt Q00013) | 0.96 ± 0.025
UniProt P61160 and related entries | 1 ± 0.049
UniProt P84090 | 1.26 ± 0.18
UniProt P57772 and related entries | 1.01 ± 0.042
UniProt P61244 and related entries | 0.795 ± 0.049
NOP14 (UniProt P78316) | 0.984 ± 0.034
UniProt P61009 | 0.961 ± 0.017
UniProt P68371 | 0.955 ± 0.12
UniProt P61129 | 0.929 ± 0.16
UniProt P54578 and related entries | 0.935 ± 0.027
UniProt P62857 | 0.972 ± 0.1
UniProt P61764 and related entries | 0.974 ± 0.042
CDK6 (UniProt Q00534) | 0.941 ± 0.056
UniProt P55199 and related entries | 1.02 ± 0.013
NCBP2 (UniProt P52298) | 1.02 ± 0.036
UniProt P98155 and related entries | 1.12 ± 0.047

Target | NP40-soluble protein abundance
EIF5 (UniProt P55010) | 0.97 ± 0.068
UniProt P52564 | 0.935 ± 0.025
UniProt P62253 | 0.955 ± 0.058
EIF6 (UniProt P56537) | 0.995 ± 0.027
CPT1A (UniProt P50416) | 1.01 ± 0.086
SEC61B (UniProt P60468) | 1.02 ± 0.16
UniProt P55957 and related entries | 1.1 ± 0.13
UniProt P61962 | 0.988 ± 0.07
UniProt P62314 | 1.03 ± 0.12
UniProt P82970 and related entries | 0.98 ± 0.08
KPNA1 (UniProt P52294) | 1.04 ± 0.042
UniProt P60842 | 0.874 ± 0.1
GRB2 (UniProt P62993) | 0.95 ± 0.058
SMS (UniProt P52788) | 0.97 ± 0.019
UniProt P62330 | 0.947 ± 0.017
FOXK1 (UniProt P85037) | 1.051 ± 0.0061
MRPS6 (UniProt P82932) | 1.29 ± 0.35
UniProt P78406 and related entries | 0.946 ± 0.061
UniProt P82912 and related entries | 1.3 ± 0.24
